From PubChem BioAssay record AID1159506 (NCATS, 2015).

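Luminescence from an EWS-FLI1 target-promoter (NR0B1) reporter, set against a CMV-promoter reporter, two days after silencing single genes in TC32 Ewing sarcoma cells.
Each siRNA was applied at 20 nM.
A z-score of the log NR0B1-over-CMV signal, less the median of siRNAs with the same seed; more negative means a stronger specific loss of the NR0B1 reporter.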

This is part of the screen; most of the strongest results are not listed here.
Sequences are the guide (antisense) strand, without overhang.

UCUAGGAUCACUGCUACUC against SERINC1 read seed-corrected z-score -1.096.
AUUGUAUCGAGACAGAUCG against PPP2R3A read seed-corrected z-score -0.1713.
UAUUGGAACAUGUAAACCA against GAPDH read seed-corrected z-score 0.01038.
UUGUUGUCGAAGUUGCUCC against OTOF read seed-corrected z-score 1.639.
UCAGAGAACACGUAGUUGC against MUC5B read seed-corrected z-score -0.2413.
UUUACGUUUUAUAUCAGCA against CT45A3 read seed-corrected z-score -0.2328.
UAAUAAAUCCAAAACCUCG against DAZAP1 read seed-corrected z-score 0.8414.
UGCACUACCAUCCUGUUCU against DET1 read seed-corrected z-score 0.1758.
UUCUUCACAAAUGUCGGUC against ZNF547 read seed-corrected z-score -0.2543.
UUCUUGCCAACCUCGAUGC against NME3 read seed-corrected z-score -1.174.
UUGUUAUAAAAAUACCUGG against TFPI read seed-corrected z-score 0.02701.
UACGAUAAUGAACAAAUUC against UBE3A read seed-corrected z-score 0.1014.
UCUUGCUCAAUCAUGACGC against UPK1A read seed-corrected z-score 0.3235.
AUUAUCAUCUUUAAUCUGC against IFT74 read seed-corrected z-score 0.4614.
UAUUAGUACAGUCAGUCUC against WDR20 read seed-corrected z-score -0.1255.
UCUUCGGUCUGAGACCUCC against TFF2 read seed-corrected z-score 0.1675.
AUUACUGUGGUAGCACUCC against LPAL2 read seed-corrected z-score -0.09646.
UAAUGAGUAACCUACCUCC against RD3 read seed-corrected z-score 0.1748.
AAGUUUGUUGUACUUGUGC against BLMH read seed-corrected z-score -0.1021.
AACUCUUCAGCAUUCUUAC against UBE2L3 read seed-corrected z-score 0.1055.
UUCUGUUCCCGAGUGCAGG against TNFRSF1B read seed-corrected z-score -0.1106.
UUUAGAAAGGUAGGGCUCG against GDAP1L1 read seed-corrected z-score 1.22.
UGUGGAAUAAAGGCCGGUG against DNPEP read seed-corrected z-score -0.3856.
UUAAGAUUAAGUUUUACUC against C11orf31 read seed-corrected z-score 0.5264.
UUCCAGAUUCUGUAGCUUC against ARFGAP2 read seed-corrected z-score 0.4886.
AGCAGUUCCAUCUUGGUAU against MCEE read seed-corrected z-score 1.099.
AUCUUGUAGAGGGAGCAGC against LOC643043 read seed-corrected z-score 1.063.
UUUCUCUAGUAUUUCAUCC against EIF2S2 read seed-corrected z-score -1.266.
UUUAGCUGAAUCUAAAACC against EFCAB2 read seed-corrected z-score 1.511.
UGAUGGAGUACGACGAGCC against PAX5 read seed-corrected z-score -0.8099.
UUACACUCAGGGUCAAGGC against CASZ1 read seed-corrected z-score 0.7416.
UGCUCUUACAUGUCUUUCC against BMP8B read seed-corrected z-score -0.9747.
UGACUGAGAAGUCCGUGAC against MON1B read seed-corrected z-score -0.4355.
AGCCUGGAUAGUGUGCUCC against DCAF12L2 read seed-corrected z-score -0.6458.
UAUUAGAUGAGGCUUGAUG against CHD1 read seed-corrected z-score 0.2442.
UCCAAUUCAGGUUCUUCGG against ZDHHC23 read seed-corrected z-score -0.3013.
AAUGAUGUCAUUUAGGUCC against CTNNBL1 read seed-corrected z-score 0.08664.
UUACGCACAGGGAAGAAAU against RANGRF read seed-corrected z-score 0.2805.
UAACCUUCGAGAUAGCUCC against CEP128 read seed-corrected z-score 1.241.
UAUCUCAACAAGUUGUGCU against SAP30 read seed-corrected z-score 1.198.
ACUGAUUCCAGAUAGAUAG against KDELR3 read seed-corrected z-score 0.1972.
UGCUGUGCAUGAUUAUCCC against ADCYAP1 read seed-corrected z-score 0.6234.
UAUUGAUCAAAGUUAUAGC against ZNF267 read seed-corrected z-score -0.1352.

The first 3 entries again:

strand,gene,seed-corrected z-score
UCUAGGAUCACUGCUACUC,SERINC1,-1.096
AUUGUAUCGAGACAGAUCG,PPP2R3A,-0.1713
UAUUGGAACAUGUAAACCA,GAPDH,0.01038